Results published in PubChem BioAssay AID1508600 (Functional Genomics Laboratory (NCATS/FGL), 2020).
The whole screen tested about 53,000 sequences, of which about 3,700 (7%) were called active.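 How the source made its calls: active means gene knockdowns whose robust z-score for IL-1 alpha signal is at least 2 or at most -2, so actives lie on both sides; inactive means the rest.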 This is one part of the list.

Experiment: Components of the Cytosolic LPS Sensing Pathway: Gene Identification via Genome-wide siRNA Screen;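 further: robust z of the log signal after scaling to non-targeting control siRNA wells of the plate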
Conditions: RAW264.7 macrophages, IL-1a HTRF, actives lie on both sides, screened at 100 nM (by protocol), cells primed 5 h with Pam3CSK4 first
How it was run: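 RAW264.7 mouse macrophages reverse-transfected with single siRNAs (100 nM final) for 48h, primed with Pam3CSK4 for 5 hours, then transfected with LipidA for 24 hour. Supernatant IL-1a read by HTRF; values normalized to negative-control median, log-transformed robust z-scores.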

z-score, inactive:
CCGUUGUCAUGUUUUAAAGTT against Prdx6 -0.287, GGCCUAUUUGUUUUUGAAATT against Mthfd2 1.45, CCUCGAUAGGUUAGUGACATT against Fdxacb1 -0.731, GGCUCUUCUAUUCUGAACUTT against Ly86 0.412, CGGUAAAUGGUCAAGAGUATT against Rheb -0.16, CCAGAAUGUCACUGCCAGUTT against Zfy1 1.34, GGAGUGAAAUCUCCUAAAATT against Tmsb10 -0.44, GCUCCAACCCAAGAAAUUCTT against Hlx 1.01, GGAUCCUGAAAUCAAAACUTT against Mbl1 -0.316, GGGUCAAUCAUGAAUGUUUTT against Pak4 -1.02, GGAGGAGAUGAAUGCUCUGTT against Krt17 -1.98, GGCCAAAGGGCAAAGUGAUTT against Plppr4 0.809, GCCUUGUAUACACUUGUUATT against Mrps27 0.588, GGGAAAGAAAGUCAGCUCUTT against Ptprf 0.341, GGAAUUCCUAAUUACGAAUTT against Ufd1 -0.788, GGAAGAGGUGGACAAGAUGTT against Gps2 -0.621, GGUGUUUAAUUGCUCACUATT against Gramd4 1.13, GCUUUUUAGGCAUUGGUAATT against Lif -0.0823, GGGCCACUUUCCAAUUCAATT against Tectb 0.817, GUGGUUGUUUUCGUCCUUCTT against Olfr821 1.12, CGGUGGAAUUCGUUAGAAGTT against Ireb2 -0.183, CCAAUGAAACUUCUAGACUTT against Gjb2 0.451, GGUAACUGACUAAUGGAAGTT against Tcl1b4 -0.638, GCUAUGUCAUAUCAUCAAGTT against Adgrg2 0.532, GGAGAAAAGCUGACCUUUGTT against Gstm5 0.218, CAUUCCAACACUUCAAACUTT against Fbrsl1 0.154, CGGACACACUUUGUUAUUATT against 4833420G17Rik 0.198, GCCCUGAAAUGAAACUGCUTT against Tmem80 0.691, GGAUAUAAGGAAAACCAGATT against Rab2a -0.539, GCGACUUGUCCUAUUUCGATT against Csgalnact1 0.261, GGUACCAUUCGUUCAAACCTT against 3830406C13Rik 0.416, GGACUUUGUCAACCUGAUGTT against Rhbdl3 0.395, GCACCAUACUAGGAUCUGCTT against Slc24a5 0.924, GGUAGAGAGGAAUUCAUAATT against Lrp11 -1.56, ACUGGAUACUCCACUCAACTT against Olfr46 -1.62, GCCUGUCAACUACCCAUAUTT against Ergic3 -1.13, CGACUUCAUAAGGUAUGCATT against Tnfrsf22 -0.793, GCCGAGAUGAGCUCCUAAUTT against Krt27 1.29, GGAACAGUUCAAGUGAAGCTT against Sertad2 -0.0174, CGCACAGACUUGCUUGGACTT against Deup1 -0.557, GGGAGAGUGGAUCAUCAAUTT against P2ry10 -0.0942, GGUUAAGGAUGCUCAAGUATT against Krt20 -0.187, GGGCGGUAAAGAUUUCCUUTT against Scn3b 0.577, GGAAAUAGAUCCUUUUUGATT against 2510039O18Rik 0.861, GGCAACUUCACAACAUGCCTT against D630044L22Rik -0.948, GGAAUUUGACCUUACUACUTT against Usb1 1.31, GGCUGUGCUUUCUCUUGAUTT against Map11 -0.314, GAACUCAAAGAAUAAAUCCTT against Ms4a6d -0.0867, GCAAGCUUCAAGAAGUAAGTT against Cenph 0.224, GGAGAAGUAGAUGUAUAUGTT against Prkar1b -1.4, GCUCUUUUAAUAUCACUGCTT against Heyl -0.516, GGAAGAAUGUGGAGGCUAUTT against Tnni1 0.367, GGUCGUAUGGUGCUCAAGATT against Pira1 -1.76, CCUCUUAAAACUAAAUCUGTT against Snw1 0.208, GGAUCCUAAAACUGAGGAATT against Crtc2 0.22, GCCUCAUAAAUAACGUGAATT against Nts 0.156, GGAAGCCUUUCAGAAGACCTT against Akr1b8 -0.184, GGUUAACACCUUCAUGUCCTT against Ntsr1 0.00916, GGGUAGUUGUUACUGUUGUTT against Sprr2f 0.229, CGAGUGACCAAAAUUUGGATT against Spata31 1.06, GCUGGGAAGACGUAUGAGGTT against Snx9 0.549, GGAAUGAGUUUCACAGUUUTT against Fech -0.291, CCAGUCAGUCAAUUAGACUTT against Pja1 1.17, GCUUCACCAGAGAUGGAAUTT against Slfn3 -0.566, CGAAUGACCUCGAUAGCUGTT against Gm5082 0.195, GCGAUUAAGAGCACUUGACTT against Aoc2 -0.599, GGUGAGAAUUUGAGAAAGATT against Dgka -0.719, GGCUAGAUCCAAUGCUUCUTT against Dlgap1 0.65, CCGCAUGUAUCAUAUCAAATT against Dhx37 1.08, GGUCUUUGUCAUCAAAGGUTT against Slc6a20a -0.071, GCCUGAAGAGAGUCUUAUCTT against Bnip5 1.09, GCAGCAGUGUGGUGACUGUTT against Erich2 -0.0516, GGGUUGGUAUAGCUUUCAGTT against Zfp619 -0.948, GGAAGCAAGCAACAUCUUGTT against Ttc34 -0.0543, GGAGGAAAAGGAAAGAGAATT against Fgd1 -0.638, GGACCAGUUAAAGUGGCAGTT against Oas1e -0.00736, GGGACAGAUGGUCGAUGAATT against E130308A19Rik 0.176, GGCAGCUGAAGAUUAUGGATT against Tagln 0.837, UAUCCUAUGGCUUUCCUGGTT against Olfr485 -1.48, GGAGUUAUUUCCUAGAACATT against Rsad2 0.129, GGAGAUAGAGACCCUAGUGTT against Tas2r124 -0.443, GGCAGUUCGUCAGCUUCAUTT against Bhmt -1.69, GCACCUUUGCAUAUCUAAATT against Olfr115 -0.121, GACUUCAGGCACACAUUGCTT against Cdc42ep5 0.989, GGAGGUUGUAAUAGCCUUATT against Rassf8 -0.62, GCGUGUUCAACACCAACUUTT against Rdh8 0.635, GGAAGAGCAAAUAUGAGAATT against Syp -1.11, GCUUCGAGUUACAAUGUCATT against Fbxw15 -0.912, GGCUCUCACACUCAAGUAUTT against Srpr 0.458, GGUUUUGCUCUCUAUUUGUTT against Ube2e3 -0.0571, UCUCCAUAUCCUAUGGAAGTT against Olfr813 0.638, GGGAGUUUCAUUUUGAAAATT against Nipa2 -0.987, CCGUCGUGGAGCCAUUAAATT against Prkcd 0.832, GGGUUCAUUUCUCACCUCCTT against Bcl7b -0.298, CGACGUAGAAACAGUGCAGTT against Ankrd54 0.527, GGAAAUGACACUUAUUGAATT against Ndst4 -0.702, GCUGAUAAGGAGGUACCAUTT against Igf2r 0.916, GGGACUUUCAUAAUGCCAGTT against Snip1 -1.57

z-score, active:
CCCAUGGAAUGAAAACAACTT against Gm4894 2.58, GGGCUAUAUAUAUUUCCACTT against Asns 2.75, GCCUAAACCUGAGUUAUAATT against Lrig1 2.34, GCAGUAGCGACGAAGGAUGTT against Rnf113a2 -2.12, GGUUUAUGGAGCAAGUGAUTT against Actr3 -2.07, GGAACUAAAUGUGAAACAUTT against Ift52 -2.07, GGUAUGCUAACAGAACACGTT against Nr1h4 3.15, GGGAUCAGGCCAUUUCCAUTT against Vav2 2.26, GGAGCCCAGGAAGAUGACATT against Cyp2c54 -3.15
